Experimental data: PubChem BioAssay AID2685 (National Center for Advancing Translational Sciences (NCATS), 2010)
Screen size: about 320,000 compounds; about 2,100 (0.66%) were called active. Inconclusive means that the source gave no clear call. Such entries were picked first, then a sample of the others. Calls come from the whole dose curve; as a rule, active = well fitted inhibition curve with a large enough effect in the signal ratio, with a control signal flat (not every such curve was filed as active); inconclusive = small, poorly fitted or top-dose-only effect, or effect the other way, or a change in a side signal; inactive = flat fitted curve, though single readings scatter; the % refers to the signal ratio. Potencies of inconclusive entries are doubtful fits and often do not repeat.

experiment: qHTS Assay for Lipid Storage Modulators in Drosophila S3 Cells; conditions: BODIPY lipid droplet fluorescence, 18-24 h, cells fed with added oleic acid; lipid storage change, negative = inhibition: at 46.1 µM (top of the series) unless noted
How it was run: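 Drosophila S3 cells got compounds at several concentrations plus oleic acid (400 uM solution). Laser-scanning cytometry with 488 nm excitation read lipid droplets at 500-530 nm and cells at 575-640 nm. Percent activity was relative to 20 uM Triacsin C.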
% is set by controls: 0 for no effect and ±100 for the full control effect; potency is the fitted concentration of half-maximal effect.

Potency, inconclusive:
CCCC(C)NC(=O)COC(=O)c1ccc2c(c1)C(=O)N(Cc1ccco1)C2=O (stereo unspecified) 7.31 µM [falling, partial curve, poor fit], CCOc1ccc2[nH]c(=O)c(CN(Cc3cccnc3)C(=O)Nc3ccccc3OC)cc2c1 0.461 µM [activator, full curve], CN(Cc1ccccc1)c1nc2c(c(=O)[nH]c(=O)n2C)n1Cc1ccccc1F 6.51 µM [activator, single point], CCOC(=O)c1[nH]c(CSc2nnnn2-c2ccccc2C)c(C(=O)OCC)c1C 2.59 µM [activator, partial curve], Cc1csc(Cn2c(CN(C)C)nc3ccccc3c2=O)n1 6.51 µM [activator, single point], CC1(C)CC(=O)c2c(oc3ccc(NS(=O)(=O)c4cccc5cccnc45)cc23)C1 18.4 µM [falling, single point], CC(OC(=O)Cc1c[nH]c2ccccc12)C(=O)NC1CCCCC1C (stereo unspecified) 2.06 µM [falling, full curve, poor fit], CC(NC(=O)/C=C/c1ccco1)c1nc2ccccc2n1Cc1cccc(Cl)c1 (stereo unspecified) 1.16 µM [falling, single point], Cc1ccc(CS(=O)(=O)Cc2ccc(C(=O)NCCc3ccccc3)o2)cc1 6.51 µM [activator, single point], COc1ccc(-n2nc(C(=O)NCC(=O)N3CCCC(C)C3)c3ccccc3c2=O)cc1 (stereo unspecified) 29.1 µM [falling, single point], CCC1(C)Cc2ccccc2-c2nc(-c3ccccc3)oc(=O)c21 (stereo unspecified) 29.1 µM [activator, single point], CCc1nc(N2CCN(c3nc(C)cc(C)n3)CC2)c2oc3ccccc3c2n1 0.259 µM [activator, full curve], CCOC(=O)Cc1csc(NC(=O)CSc2nnnn2-c2ccc(F)cc2)n1 29.1 µM [rising, single point], N#Cc1nc(COc2ccc(-c3ccccc3)cc2)oc1NCc1cccnc1 0.0731 µM [activator, full curve, poor fit], Cc1cc(Cl)ccc1OC(C)C(=O)NN=C1CCCCCC1 (stereo unspecified) 29.1 µM [activator, single point], CN(Cc1ccccc1OCCO)CC1CCCN(CCc2ccc(Cl)cc2)C1 (stereo unspecified) 1.84 µM [activator, full curve], CCOc1ccccc1NS(=O)(=O)c1cc2c3c(c1)C(C)C(=O)N3CCC2 (stereo unspecified) 25.9 µM [falling, single point], Cc1cccc(N=C2NC(=O)S/C2=C\c2ccco2)c1 16.4 µM [activator, partial curve, poor fit], O=C(NCc1ccncc1)C1CCN(S(=O)(=O)Cc2ccccc2)CC1 0.259 µM [falling, full curve, poor fit], COc1cc(/C(O)=C(\C#N)c2nc3ccccc3[nH]2)cc(OC)c1OC 6.51 µM [activator, single point], COc1cc(-c2nc(-c3ccc4c(c3)-c3ccccc3S4(=O)=O)c(-c3ccccc3)[nH]2)cc(OC)c1OC 2.91 µM [activator, partial curve], Cc1nc(N)nc(C)c1Cc1ccccc1 0.92 µM [falling, full curve, poor fit], COc1ccccc1NS(=O)(=O)/C=C/c1ccccc1 16.4 µM [activator, single point], O=C(NCc1ccco1)c1nc2ncccn2n1 0.13 µM [falling, full curve], CC1CCc2[nH]c3ccc(C(=O)NCC4CCCO4)cc3c2C1 (stereo unspecified) 1.64 µM [falling, full curve, poor fit]

Potency, active:
COc1ccc(NC(=O)Nc2ccc(CC(=O)O)cc2)cc1 0.116 µM

Lipid storage change, negative = inhibition, inconclusive:
CC1Cc2nc(SCC(=O)NCc3ccco3)n(-c3ccccc3)c(=O)c2S1 (stereo unspecified) 32.3%, O=C(O)c1ccc(NC(=S)NC2CCCCC2)cc1 6.35%, CN1C(=O)S/C(=C/c2cccn2-c2cccc(C(=O)O)c2)C1=O 21.3%, O=C(O)C1=CC[C@@H](c2ccc(Cl)cc2)N(S(=O)(=O)c2ccc(Cl)cc2)[C@H]1c1ccc(F)cc1 8.77%, COc1ccc(CCNC(=O)c2oc3ccccc3c2C)cc1 61.3%, Nc1cc(N)nc(SCC(=O)NCc2ccco2)n1 -5.43%, Cc1ccc2oc(C(=O)NCC(c3ccco3)N(C)C)c(C)c2c1 (stereo unspecified) -2.87%, Cc1ccc(C(=O)NCC(=O)NCCc2ccc(S(N)(=O)=O)cc2)s1 -28.4%, CNC(=O)[C@H]1O[C@@H](n2cnc3c(NCc4cccc(I)c4)nc(Cl)nc32)[C@H](O)[C@@H]1O 4.36%, CCC(C)(C)NC(=O)CN(C(=O)CNS(=O)(=O)c1ccccc1)c1ccccc1 16.5%, CCNC(=O)CC1C(=O)N(c2ccc(F)cc2)C(=S)N1CCc1ccncc1 (stereo unspecified) 14.8%, CN(CC(=O)O)c1ccc(S(=O)(=O)N2CCOCC2)cc1[N+](=O)[O-] 17.1%, Cc1nc(Nc2ccc(C(=O)O)cc2)nc(Nc2ccc(C(=O)O)cc2)c1[N+](=O)[O-] -20.7%, CC(=O)c1cccc(NC(=O)c2cc3nc(C)cc(C)n3n2)c1 30.2%, O=C(NCCC1CCCCN1S(=O)(=O)c1ccccc1)C(=O)NCc1ccccn1 (stereo unspecified) -12.9%, C/C(=N\NC(=S)NC1CCCCC1)c1cccs1 10.7%, CC1CCN(C(=O)C(Cc2ccccc2)NS(=O)(=O)c2ccc3c(c2)oc(=O)n3C)CC1 (stereo unspecified) 18.2% [at 9.22 µM], CC1(c2ccccc2)CC(c2ccccc2)=Nc2nonc2N1 (stereo unspecified) 17.2%, Cc1ccc(N/N=C/c2ccncc2)cc1 62.9%, CCCCOC(=O)CCc1c(C)[nH]c(=O)c(C#N)c1C -0.757%, CCCN(CC(=O)Nc1ccccc1C)C(=O)COc1c(C)cccc1C 22.8%, O=c1c2ccccc2nc(-c2ccc([N+](=O)[O-])cc2)n1O 7.63%, C(=C\c1ccccc1)/C=N/n1cnnc1 -3.89%, CC(C)N(Cc1ccccc1)S(=O)(=O)N(C)C -46%, O=c1cc(-c2ccccc2)nc(SCc2ccccc2F)[nH]1 -15.7%, CCN(CC)S(=O)(=O)c1ccc(/C=C/C(=O)OCC(=O)N(C(C)C)C(C)C)cc1 -137%, Cc1ccc(NC(=O)CCC(C(=O)O)N2C(=O)c3ccccc3C2=O)cc1 (stereo unspecified) 9.31%, N#C/C(=C(/O)Cc1cccc2ccccc12)c1nc2ccccc2s1 -0.316%, Cn1nnnc1SCC(=O)Nc1ccc(Cl)cc1Cl 7.33%, O=C(COc1ccccc1)NCC(=O)N/N=C/c1cc(Br)ccc1OCc1ccccc1 -68.3%, Cc1sc(N)c(C(=O)c2ccccc2)c1C -29.2%, Cc1cc(C(=O)NC(C)C2CCCO2)cs1 (stereo unspecified) -5.03%, Cc1cc(OCC(=O)OCC(=O)Nc2cccnc2Cl)ccc1Cl, Cc1ccc(OCC(=O)NC(=S)Nc2ccccn2)c(Br)c1 2.13%, COc1ccc(Cl)cc1NC(=S)N(Cc1ccccc1C)CC1CCC(C(=O)O)CC1 (stereo unspecified) 8%, C=C(C)Cn1c(Sc2nnc(C)s2)nc2c1c(=O)[nH]c(=O)n2C -24.8%, Cc1c(C(=O)Nc2c(C)n(C)n(-c3ccccc3)c2=O)oc2ccccc12 44.3%, Cc1ccc(NC(=O)c2c(C)nc3sc(C(=O)NC4CCCC4)c(N)c3c2-c2ccco2)c(C)c1 24.2%, N=C1S/C(=C\c2ccco2)C(=O)N1c1nccs1 11.3%, CN(C)C(=O)/C(=C\c1ccc(-c2cccc([N+](=O)[O-])c2)o1)NC(=O)c1ccccc1 -2.44%, CCN1C(=O)c2ccc(C(=O)NCc3ccco3)cc2C1=O -100%, COc1ccc(NC(=O)CSC2=NCCN2)cc1 2.36%, O=C(Nc1ccncc1)c1ccccc1-c1ccccc1 -17.3% [at 9.22 µM], CCN(CC1COc2ccccc2O1)C(=O)CN1C(=O)NC(C)(c2ccc(C)cc2)C1=O (stereo unspecified) -18.9%, O=C1NC(c2ccc(-c3ccccc3[N+](=O)[O-])o2)C(C(=O)c2ccccc2)C(O)(C(F)(F)F)N1 (stereo unspecified) -13.9%, O=C(O)CCc1ccc(-c2ccccc2)o1 -36.1%, CC1(C)Cc2ccccc2C(/C(=N/O)C(N)=O)=N1 -1.9%, COC(C(=O)Nc1cccc([N+](=O)[O-])c1)c1ccccc1 (stereo unspecified) -31.6% [at 0.369 µM]

Lipid storage change, negative = inhibition, inactive:
CCn1c(SCC(=O)NC2CCCC2)nnc1-c1c[nH]c2ccccc12 28.1%, COc1ccc(C(=O)NCCNc2nc3ccc(C)cc3cc2C#N)cc1OC 19.1%
